Patent US20240315963A1, “COMPOSITIONS AND METHODS FOR EXTENDED DELIVERY OF API TO TREAT DISEASES OF THE EYE” (priority 2023, published 2024)
At least one compound was matched to its structure with a doubt left.

Assay: API elution study from the gel, buffer replaced daily, HPLC
Assay type: physicochemical
Details: 37° C.; for amount eluted each day: 2 ml 7.4 buffer replaced daily
Protocol: A mold piece manufactured per example 5 is placed in a 2 ml buffered saline at 37° C. water bath. The entire 2 ml saline is removed daily from the sample and a new 2 ml saline is added. The process is repeated daily till the device is completely dissolved. The saline sample with drug is analyzed by HPLC, GC to establish the elution rate.
Example 22. Powder mixtures of 4-Arm PEG-10K-SG (12.5 mg) and 4-arm-PEG-10K-SAS (12.5±0.5 mg), 4-arm PEG-20K-NH 2 (25±0.5 mg) were placed in a 10 ml syringe. To this powder was added 50 mg corticosteroid TMC.

Cc1nc(Nc2ncc(C(=O)Nc3c(C)cccc3Cl)s2)cc(N2CCN(CCO)CC2)n1 [DST]
amount eluted each day (15 mg API in 4-Arm PEG-10K-SG/4-arm-PEG-10K-SAS/4-arm PEG-20K-NH2 gel): 4-6 micro grams

CCN(CC)CCNC(=O)c1c(C)[nH]c(/C=C2\C(=O)Nc3ccc(F)cc32)c1C [sunitinib, Sunitinib]
amount eluted each day (15 mg API in 4-arm-PEG-10K-SAS/4-arm PEG-20K-NH2 gel): 4-6 micro grams | duration of elution (15 mg API in 4-arm-PEG-10K-SAS/4-arm PEG-20K-NH2 gel, study stopped after 1.5 years): about 1.5 years
